These are yes or no findings as the source states them, for the method shown. Some binding calls cover weakened binding; strength is not graded here.

Our source for the binding values is patent US20240192215A1.

For one experiment, the target named is T1, Peptide_054 (human).
T1 sequence (peptide): MIKPFFHSLSEKYSN
The experiment can be described thus: peptide microarray.

A further experiment addresses T2, Peptide_019 (human).
T2 sequence (peptide): VKQIESKTAFQEALD
The experiment can be described thus: peptide microarray.

B1: monoclonal antibody B264 (antibody, mouse IgG1, kappa, V domains shown)
VH: QVQLQQSGAELARPGASVKMSCKASGYTFTSYTMHWVKQRPGQGLEWIGYINPTSDYTNYNQKFKDKATLTADKSSSTAYMQLSSLTSEDSAVYFCASEGGFLYYFDYWGQGTTLTVSS
VL: DVLMTQTPLSLPVSLGDQASISCRSSQSIVHSNGNTYLEWYLQKPGQSPKLLIYKVSNRFSGVPDRFSGSGSGTDFTLKISRVEAEDLGVYYCFQGSHVPYTFGGGTKLEIKR
Take B1: the binding entry with Peptide_054 (human) and in the experiment with Peptide_019 (human) was “binds” in each case.
